Measurements reported in PubChem BioAssay AID1159584 (Peter MacCallum Cancer Centre, 2016).
Test: 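Genes whose loss is lethal only together with E-cadherin loss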 (primary screen). Cell system: human MCF10A breast epithelial cells, parental and CDH1-null. Knock-down reagent: siRNA against human genes. Detection: 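Cell viability by CellTiter-Glo ATP luminescence, each line scaled to the mean of mock wells across plates, then CDH1-null over parental ratio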. Reading the numbers: CDH1-null / parental viability ratio: higher = CDH1-null cells survive relatively better than parental; CDH1-null viability vs mock: higher = more viable CDH1-null cells; parental viability vs mock: higher = more viable parental cells.
In all, the deposit lists about 18,000 reagents; this is a random part of them. The record does not give: the amount of reagent, the time to read-out.

Gene	CDH1-null / parental viability ratio	CDH1-null viability vs mock (fraction of mock)	parental viability vs mock (fraction of mock)
SNTA1	1.52	0.7	0.46
MMRN2	1.03	0.8	0.78
RASA1	0.67	0.61	0.91
CAMSAP3	1.18	0.77	0.65
DCPH1	1.17	0.56	0.48
RILPL2	1.11	0.93	0.84
TMEM45B	0.58	0.31	0.53
TBC1D28	1.43	0.66	0.46
TESK1	0.98	0.88	0.9
CCNDBP1	0.99	0.67	0.68
TEDC1	1.28	0.5	0.39
ZC3H10	0.97	0.69	0.71
NBEA	0.76	0.75	0.99
C10orf71	0.95	0.72	0.76
NAA11	1.12	0.9	0.8
FFAR1	1.38	1.01	0.73
DEK	0.91	0.72	0.79
METTL26	0.86	0.57	0.66
OR56A1	0.81	0.57	0.7
CRISPLD1	1.04	0.79	0.76
SMAP1	0.9	0.92	1.02
CFAP54	1.23	1.03	0.84
DBF4	0.97	0.72	0.74
ACVR1B	0.93	0.8	0.86
CPXCR1	1.26	0.88	0.7
DGAT2L6	1.02	0.63	0.62
HSDL1	1.08	0.99	0.92
MAL2	1.05	1.01	0.96
IRGC	1	0.82	0.82
ATF2	0.8	0.72	0.9
ARC	0.96	0.5	0.52
HIRIP3	1.08	0.28	0.26
AHNAK	1.16	0.43	0.37
POLDIP3	0.94	0.88	0.94
MT1A	1.17	0.94	0.8
CCR10	1.54	0.83	0.54
DDX41	0.94	0.68	0.72
PLAC8	0.94	0.77	0.82
MT3	0.97	0.75	0.77
GPA33	0.88	0.56	0.64
LTAP1	0.98	0.81	0.83
PCDH12	0.9	0.65	0.72
STAP1	0.95	0.81	0.85

Just “parental viability vs mock (fraction of mock)” (6 entries from above):
MMRN2: 0.78
RASA1: 0.91
CAMSAP3: 0.65
DCPH1: 0.48
RILPL2: 0.84
TMEM45B: 0.53

More records:
Gene	CDH1-null / parental viability ratio	CDH1-null viability vs mock (fraction of mock)	parental viability vs mock (fraction of mock)
TPTE2	1.25	0.86	0.69
RFPL3	0.77	0.6	0.78
KLHL24	0.98	0.63	0.64
OR5B21	0.84	0.62	0.74
LIMD2	0.79	0.62	0.78
PID1	1.01	0.81	0.8
CDC42SE2	0.87	1.02	1.17
CTRC	1.52	0.44	0.29
EMB	0.61	0.49	0.8
ZNF672	1	0.34	0.34
DBNL	0.73	0.69	0.95
ITM2A	0.88	0.46	0.52
RTN1	1.25	0.65	0.52
FLNB	0.93	0.7	0.75
CYSLTR2	0.82	0.76	0.93
ING2	0.86	0.76	0.88
UBR2	1	0.97	0.97
GTF2H5	1.04	0.77	0.74
GPR68	1.06	0.83	0.78
POU2AF2	0.98	1	1.02
PCBP1	1.05	0.92	0.88
PIAS2	0.9	0.44	0.49
PLEKHA1	0.93	0.99	1.06
HLA-DPA1	0.99	0.85	0.86
SLC38A10	1.36	0.75	0.55
LIN7C	0.9	0.94	1.04
GTPBP8	1.05	0.9	0.86
MEMO1	0.83	0.68	0.82
CDK5RAP1	1	0.54	0.54
STOML3	0.93	0.81	0.87
SPATA22	0.86	0.77	0.9
MRPL36	0.93	0.57	0.61
TSHZ2	1.03	0.64	0.62
ULK4	1.01	1.01	1
SUMF2	1.33	0.76	0.57
LYPD6	1.03	0.96	0.93
ZNF775	0.95	0.76	0.8
USP20	1.2	0.83	0.69
ZNF234	1	0.68	0.68
DEFB106B	1.35	1.16	0.86
OXCT2	0.99	0.76	0.77
TIGD5	1	0.64	0.64
ECEL1	1.2	0.91	0.76
WBP4	0.85	0.58	0.68
